Results are given in words; binding and its absence hold for the method and conditions named. Binding seen in cells or lysates may run through a third protein. These calls come from enrichment with a bait or labelling near it, and not all partners need be listed. Tags and fused reporters may be left off the sequences shown.

The labels stand for the following.
T1: Msd1-GFP (Drosophila) (UniProt Q9W0G7)
T1 sequence: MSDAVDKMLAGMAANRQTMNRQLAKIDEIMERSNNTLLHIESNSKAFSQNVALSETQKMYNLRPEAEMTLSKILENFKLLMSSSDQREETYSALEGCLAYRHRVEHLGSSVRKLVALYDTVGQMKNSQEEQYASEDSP

B1: Dgt3 (protein, UniProt Q9W2P0 1-565)
chain: MGDLLSNSEFFKKLGVDSSNQWILYDEQMEMFFKFLSGNITDANILTERQVLEREEMQRRGEWLSASDRELKLLQIEAESPGLLNYKQQDVDALTMSIEAIEDASRDYATLLEDMMTTKHSITKHLGEVECVTAELQLREKDLIAECQSKAKQLEELQQENCRLSAEAKKAFTAPQLPPLFMHQLPLEQYFHKCDSFMQYFTLYVKENFKIQDYDEFQSAEEDLGREKAKLEDLERGIQFYALSYIRTKAKVKATQCLIDQLDLGKIHCLSLTDMAREMHDLQLLNDYQLSNTHDTLLNDLTIHIQQHTQRRIELVLYENTKLKLERAVRRHESDKKLTKIISDALSNAELLWIAIQLDCDKKRNCLDTSEELRDQAQATWQRIQTMRSINASYQGICAQFVQEIANLLSAHLGQNIKATEAKACLFEYEKFGRLLSYSFQSMLNRKSCAAVQDQLAELKRLEQTLRPFVYDSPLEQPMFENVRYLSAIYNVTQQQTRLDESGRSLRKDFLENVVGRIERDKLYRYSVVLWIWFLTEPQRMMHAIDEVKKAAAAVIRPGGGLHRK
B2: Dgt4 (protein, UniProt Q9W4M8 1-188)
chain: METPPTPTTTTPPSLTTEGTMDDIQYLLHLEAMRRFQEDSRNVKRQVEEQVRIWLDAKCEYQRDFGRLARLLKCGALQAAVDAHRVSDVNQVDQAAKDIASLRSKLGSDLRPAILDSNDVKQCLEHLNTTHKPRLNLCRQQREFAQNQEALRSLRTAVDGLENGMEMGMIQAMDRLVEDLLPPRETNN
B3: Wac (protein, UniProt Q9W0S8 1-163)
chain: MQNLKIQEEVNSLMRLGQHFDDQLKLASVELGDFSDDDLALLDKCAQYYSLLHIHDINLNYLRDFYCAKKRECIENRQTTVQQRVELQRILSSIEEATRDVVMLERFNAAAEERLIPDIVVMQRNAQQLATKQALLDRQKTLKIPKDFSIESVIEKVDSLEQR
B4: Dgt6 (protein, UniProt Q9VAP2 1-654)
chain: MDRTIIAPWKAEEKEQSEKLHRKLQGLALVHPLPDELRKLIAWDMFLKPNQVAFVHVMHYLFRLLDPAEFKRRFFWPITDKKSEANFRSSTVEYLKHLNEKHQLHWANIKSYLVVMPGGMRFINFLLEFVGFVIQELIKQREKSLGLEAGTPNVSAKVMARQNAVMKEYASSYVVNLEENTALLRDKTQKIRRLMADLSADMGVPEEQLADDGFLDEFEATAALGVERVITQPTERKFDLEASLCGLKEAIDLFQVKQAENNQSKEAVEKALRGMRVLFDCDAVTEGDFYDPLGASKMDALLNGFNRISGTIAEQLDANDHYNESNAFVTTDLQALRVELSQSEVQLNNLLKKLNEPSKKDKGSANASGSARVQTLQPATPRFESVISSKFVSTPPIRIDMGGGGGRNAPVRLALQDDFNGKQFDALSNSLLAPAPPRSARKLKALDQSTGIDLNGTLNRSKINDPMQMLRTIHKNTSKVKAAPQANLSSLGSKWKQMQASFGFDEAPVPGAAVISPQTSPTDPSDPFTPLSGSECTRIERIPRTSENNTSLIAKSAAVIKVLEVSRNVLNLSTSPSGRLDALVPHTESHQQDVAPRLQLNDRTINDSLQLDPDFNIENDKNAFNVSHKFDFDQIGGEDDLQNISDSVLKDIIF
B5: Msd5 (protein, UniProt Q9W0G6 1-253)
chain: METNVDFSSISSKLYRKYAQHVRNLKDVCVSKTVMKPGAFFDSLQQMMEEEAAATTPPRDLSSVADYAELFKTLEEYPANLQKMPKKRELQRTNSTLLRGADESVAMGINTSNVSLSLTRLEEQRSAVDVYNDFKGFQRKLAKIYDEAAALDTTESIYKQKLTQLHGFAQQLEKLMPTGGESPPDAFTSEQQEKLLTIAANMEQLNYLRSNSLQLPNPNEILATGSLAARLEMFVEVLTYTLLQVSSYNMAMI
B6: Dgt2 (protein, UniProt Q9VKD6 1-231)
chain: MDDPSATLLPEHSEDLRLARDAELKKVLKLKLVLDELRRLDVGPNPSDEIKRALKLVSIGSYARLGEMEGAGQEQVLGLPSGSSFPPLNYTDRKTVRTKLSAQLRTTLQPIAELCDRIREEFPDAFGQEADLSCDQKEILRLEEEHRSGLEKLVALLTRKCTLLKETAELKLGPQLANELKLQQAQAQLVQTKAELLRGFFVHEAASRTEHSVKAHKEVEAHLDELLAAKK
B7: Dgt5 (protein, UniProt Q7K4B4 1-685)
chain: MAYQEKITEFKNWATNLGCPPTALPTDDALRRIFKSGSSLLLNQLQSRIQPVDYVREVRENLLIAQVARYKDKMVPLASRSFQPPELQRYQKIQELKKHKEKANQQLTEARKEYQKLSAGIKTKNIQTISAENRKQLLESKCNILDLKLESLNKNYDQELKNKIQILGTTPVKLSARNASEAQATRAVEQALKQLETFYGMCDDGNAVNNLAEAKQRLWDQMRSTFADIPNSLLLNVVMKIKEEQLQHIMKLNESRGECTNDKPPLNNYEVKLLKTKADMLGLAAKYFAAQKELELKEERFCQDYSVFVDKLQSKVYRFNGISLGDEENADELISDYLVQYNMRNFNRSQNEFLREQIEQLRLELDAGAKQLENHDLKLGSVKQVYGDINSSINRIQQDMVQLSQIKEKILFSRNMMKNLLDDMQAATQKQNAKSQLMSTKLKVSNMSMLGAESFCLANDSVFSSTKVEFDGNCSAINSTMRRSFDNKTLVPGGAASTTLMAASGATLPSHLLEFNTFLEIPLEKFSCTPRACSFLLSANPLIVEAQELASTVQLAPGYLLTPFGALQEVRKRILWASAIAAHTSELKLNLQPLIVDPHDLRLKASRQHEEIDQLLDNLMAIGVKTQLQLEKAERIYQFLLENPLRRYVPPSKRYNNGSFADYESEFNLYYRMTTNGSSMRAPPN

The experiment addresses T1, Msd1-GFP (Drosophila). Description: affinity purification with mass spectrometry; GFP-TRAP-A beads incubated overnight at 4°C with clarified extract of 0-3 h Drosophila embryos expressing Msd1-GFP; C buffer (50 mM HEPES pH 7.4, 50 mM KCl, 1 mM MgCl2, 1 mM EGTA, 0.1% IGEPAL CA-630); on-bead trypsin digestion, LC-MS/MS.
Take B1: the binding entry is given as “binds”.
For the molecule B2, the binding entry is “binds”.
For the molecule B3, the binding entry is listed as “binds”.
Consider B4, for which the binding entry is “binds”.
With B5, the binding result is on record as “binds”.
The result for B6 reads “binds”; that for B7, “binds”.

The values above are taken from paper PMC5450317.
